# PubChem BioAssay AID540276 (National Center for Advancing Translational Sciences (NCATS), 2011)
# The campaign covered roughly 300,000 compounds. About 5,400 (1.8%) were called active. This list was built around the results that the source calls inconclusive (neither active nor inactive); the mix of calls is not that of the screen. Calls follow the shape of the full dose curve; tested in HEK293 cells. Potencies beside an inconclusive call are fits to weak or partial responses and may not hold up.
# Assay: qHTS for inhibitors of binding or entry into cells for Marburg Virus
# Conditions: Marburg virus pseudotyped entry inhibition, cell reporter; series mostly up to 37.8 µM
# Potency is read from the fitted curve at half-maximal effect.
row,SMILES,Potency
1,COc1cccc(NC(=O)c2oc3ccccc3c2NC(=O)C23CC4CC(CC(C4)C2)C3)c1,"inconclusive: 35.5 µM [activator, single point]"
2,CN(C)C(=O)CN1C(=O)NC(c2ccccc2)(c2ccccc2)C1=O,"inconclusive: 31.6 µM [activator, single point]"
3,CCc1[nH]nc2c1C(c1ccc(C)o1)C(C#N)=C(N)O2 (stereo not drawn),"inconclusive: 3.98 µM [inhibitor, full curve, poor fit]"
4,CCCCOc1ccc(-c2cc(C(=O)NNC(=S)NCC)c3ccccc3n2)cc1,active: 1.46 µM
5,O=C(NN=C1CCCC1)c1cc(-c2ccc(F)cc2)nc2ccccc12,"inconclusive: 35.5 µM [inhibitor, single point]"
6,Cc1ccc(S(=O)(=O)CCC(=O)N(CCCN2CCOCC2)c2nc3ccccc3s2)cc1,"inconclusive: 3.55 µM [activator, single point]"
7,COc1cc(C(Nc2ccc3c(c2)OCO3)C(=O)NC2CCCCC2)cc(OC)c1OC (stereo not drawn),"inconclusive: 25.1 µM [inhibitor, single point]"
8,COc1cc(OC)c(C(=O)OCC(=O)Nc2ccc(N3CCOCC3)cc2)cc1OC,"inconclusive: 0.398 µM [inhibitor, partial curve, poor fit]"
9,Cc1ccccc1CN(C)CC(=O)Nc1cccc(S(=O)(=O)N(C)c2ccccc2)c1,"inconclusive: 35.5 µM [inhibitor, single point]"
10,CCCC(=O)c1ccc(N2CCN(S(=O)(=O)c3ccccc3)CC2)c(F)c1,"inconclusive: 5.62 µM [activator, single point]"
11,CCOC(=O)C(O)(c1ccc(N(CC)S(=O)(=O)c2ccccc2)cc1)C(F)(F)F (stereo not drawn),inactive
12,C=C(C)CC1(NC(C)c2ccccc2)CCCCC1 (stereo not drawn),"inconclusive: 5.62 µM [activator, single point]"
13,CCOC(=O)CC1CCCCN1Cc1nc(-c2ccc(F)c(OC)c2)oc1C (stereo not drawn),"inconclusive: 31.6 µM [inhibitor, partial curve, poor fit]"
14,O=C(Nc1nc(-c2ccco2)c(-c2ccco2)s1)c1ccc(F)cc1F,inactive
15,COC(=O)C1=C(C)N(Cc2ccco2)C(=O)N[C@H]1c1cccc(C(F)(F)F)c1,inactive
16,O=C(NNC(=O)c1ccc2ccccc2c1O)c1cccs1,"inconclusive: 2.51 µM [activator, full curve, poor fit]"
17,O=C(O)Cn1c2ccccc2c2n[nH]c(=S)nc21,inactive
18,O=C(CCSCCc1ccccn1)Nc1ccc(Cc2ccncc2)cc1,inactive
19,Cn1cccc1C(=O)NCc1ccccn1,inactive
20,CC1CCN(CC(=O)Nc2cccc(Cl)c2)CC1,"inconclusive: 22.4 µM [inhibitor, single point]"
21,c1ccc(C2=NN(c3ccccc3)C(c3ccco3)C2)cc1 (stereo not drawn),inactive
22,CN1C(=S)SC(/[N+]([O-])=C/c2c(F)cccc2Cl)C1(C)C (stereo not drawn),"inconclusive: 5.62 µM [inhibitor, single point]"
23,CCOC(=O)c1c(-c2ccccc2)csc1/N=C/C1C(=O)CCCC1=O,"inconclusive: 29.1 µM [inhibitor, single point]"

row,SMILES,Potency
1,Oc1cccc2ccc(Nc3ccccn3)nc12,"inconclusive: 8.2 µM [inhibitor, partial curve, poor fit]"
2,CC(C)(C)c1ccc(OCCC(=O)NC2=NCCS2)cc1,inactive
3,CCCCSc1nnc(-c2ccc(NC(=O)CCc3ccccc3)cc2)n1C,inactive
4,O=C(NCc1ccccc1Cl)c1ccc(S(=O)(=O)N2CCCC2)cc1,inactive
5,C/C(=N\NC(=O)c1cc(Br)ccc1O)c1cccc(NC(=O)c2ccccc2F)c1,"inconclusive: 31.6 µM [activator, single point]"
6,CC(C)(O)CN(C(=O)c1ccc([N+](=O)[O-])cc1)C1CCCC1,inactive
7,O=C1CCCC2=C1C(c1ccco1)Nc1ccc(C(=O)c3ccccc3)cc1N2 (stereo not drawn),"inconclusive: 17.8 µM [inhibitor, single point]"
8,CS(=O)(=O)N1CCN(c2ccc(NC(=S)NC(=O)c3cccs3)cc2)CC1,inactive
9,COCc1ccc(C(=O)NC(C)c2cnn(-c3ccccc3C)c2C)o1 (stereo not drawn),inactive
10,O=C(NC1CCCCC1)c1cc(-c2cccs2)on1,inactive
11,COc1ccc(C(=O)Nn2c(SCC(=O)NC3CCCC3)nc3ccccc3c2=O)cc1,"inconclusive: 16.4 µM [inhibitor, single point]"
12,COCCn1c(SCC(=O)Nc2sccc2C(N)=O)nc2cc(Cl)ccc2c1=O,"inconclusive: 35.5 µM [inhibitor, single point]"
13,c1ccc(-c2nccnc2-c2ccccc2)cc1,inactive
14,COc1ccc(C(=O)CSc2nncn2C)cc1,"inconclusive: 14.1 µM [activator, single point]"
15,Cc1c(C(=O)N2CCCC(C)C2)sc2ncnc(N3CCCCC3C)c12 (stereo not drawn),"inconclusive: 8.91 µM [inhibitor, partial curve, poor fit]"
16,CCCCNC(=O)C1C2C=CC(C2)C1C(=O)O (stereo not drawn),"inconclusive: 0.447 µM [activator, partial curve, poor fit]"
17,COC(=O)N/N=C/c1ccccc1OCCOc1ccc(OC)cc1,"inconclusive: 15.8 µM [inhibitor, single point]"
18,COCCN(C(=O)CSc1nn(-c2ccc(F)cc2)c(=S)s1)c1c(N)n(CC(C)C)c(=O)[nH]c1=O,"inconclusive: 1.26 µM [inhibitor, single point]"
19,CCCCCOc1ccc(C)cc1CN(CCCl)CCCl,"inconclusive: 11.2 µM [inhibitor, partial curve, poor fit]"
20,COc1ccccc1C(=O)NC(=S)Nc1ccc(NC(=O)c2cccs2)cc1,"inconclusive: 0.316 µM [inhibitor, partial curve, poor fit]"
21,O=[N+]([O-])c1ccc(N2CCCC2)nc1N1CCCC1,"inconclusive: 0.562 µM [activator, partial curve, poor fit]"
22,O=C(Oc1ccccc1N1C(=O)C2CCCCC2C1=O)c1ccc(Cl)cc1 (stereo not drawn),inactive
23,O=C(NNC(=O)c1ccccc1F)c1cccs1,"inconclusive: 1.41 µM [activator, partial curve, poor fit]"

row,SMILES,Potency
1,C=CCn1cc(C(=O)NCc2ccc(Cl)cc2)c(=O)c2cc(S(=O)(=O)N(CC)CC)ccc21,"inconclusive: 35.5 µM [inhibitor, single point]"
2,CC1CCCN(CCOc2ccc3ccccc3c2Br)C1 (stereo not drawn),"inconclusive: 6.31 µM [inhibitor, partial curve, poor fit]"
3,Cc1ccc(N=Cc2sc(O)c3ccccc23)cc1,"inconclusive: 12.6 µM [activator, partial curve, poor fit]"
4,COc1cc2c(C(=O)N3CCN(c4ccc(C)cc4)C(C)C3)cn(CC(C)C)c(=O)c2cc1OC (stereo not drawn),"inconclusive: 0.562 µM [inhibitor, full curve, poor fit]"
5,CC1(C)C(=O)C=C[C@]2(C)[C@H]3CC[C@@]4(C)[C@H](c5ccoc5)OC(=O)[C@H]5O[C@]54[C@]3(C)[C@H](O)C[C@@H]12,"inconclusive: 20.6 µM [inhibitor, single point]"
6,Cn1nc(OC(=O)Nc2ccc(F)cc2)cc1C(F)(F)F,inactive
7,O=[N+]([O-])c1cccc2c(Cl)ccnc12,"inconclusive: 14.1 µM [inhibitor, single point]"
8,O=C(c1ccccc1)N1CCN(Cc2cccc(Oc3ccccc3)c2)CC1,"inconclusive: 0.517 µM [activator, full curve, poor fit]"
9,COc1ccc(C(C#N)=C2C=CC(=NO)C=C2)cc1,"inconclusive: 11.2 µM [inhibitor, partial curve, poor fit]"
10,COc1ccc(C(=O)/C=C/C(=O)N(CC(=O)NC2CCCCC2)Cc2ccccc2OC)c(O)c1,"inconclusive: 10 µM [inhibitor, partial curve, poor fit]"
11,CCOc1ccc(CN(CCc2ccc3c(c2)OCO3)Cc2cc(OC)ccc2O)cc1,inactive
12,O=C(N/N=C/c1ccc(OC(=O)c2ccco2)cc1)c1ccccn1,"inconclusive: 22.4 µM [inhibitor, single point]"
13,O=C(O)CCC(=O)Nc1ccccc1C(=O)NCCc1ccccc1,"inconclusive: 6.31 µM [activator, single point]"
14,O=C(c1cc(C(=O)NCCc2ccccc2)c(=O)n(CCc2ccccc2)c1)c1cc(Cl)ccc1O,"inconclusive: 35.5 µM [inhibitor, single point]"
15,Cc1cccc(NC(=O)Cn2cnc3c(oc4ccccc43)c2=O)c1C,"inconclusive: 12.6 µM [inhibitor, single point]"
16,COc1ccc(CCNC(=O)c2cc(-c3ccc(Cl)cc3)on2)cc1OC,inactive
17,COc1cccc(NC=C2C(=O)OC(C)(C)OC2=O)c1,"inconclusive: 2.59 µM [inhibitor, full curve, poor fit]"
18,Cc1cc(C)cc(N(CCC(=O)Nc2nnc(C3CC3)s2)S(=O)(=O)c2ccc(Cl)cc2)c1,"inconclusive: 22.4 µM [inhibitor, single point]"
19,CCSCCOC(=O)C1=C(C)NC(=O)NC1c1cc(OC)ccc1OC (stereo not drawn),inactive
20,CCCNC(=O)[C@H](Cc1c[nH]c2ccccc12)NC(=O)c1ccccc1Cl,"inconclusive: 0.631 µM [activator, full curve, poor fit]"
21,CCCOc1ccc(C(=O)Nc2ccc(N3CCN(C(=O)c4ccco4)CC3)cc2)cc1,"inconclusive: 1.26 µM [activator, partial curve, poor fit]"
22,CCC(=O)Nc1cc(C(=O)OC(C(=O)c2ccc(C)c(C)c2)c2ccccc2)ccc1C (stereo not drawn),"inconclusive: 29.1 µM [inhibitor, single point]"

# Three structures from above, ordered by length of the SMILES, descending:
row,SMILES,Potency
21,CCCOc1ccc(C(=O)Nc2ccc(N3CCN(C(=O)c4ccco4)CC3)cc2)cc1,"inconclusive: 1.26 µM [activator, partial curve, poor fit]"
15,Cc1cccc(NC(=O)Cn2cnc3c(oc4ccccc43)c2=O)c1C,"inconclusive: 12.6 µM [inhibitor, single point]"
7,O=[N+]([O-])c1cccc2c(Cl)ccnc12,"inconclusive: 14.1 µM [inhibitor, single point]"
